In article PMC5986867:
Results are given in words; binding and its absence hold for the method and conditions named. In cells and extracts the contact can be indirect. Some binding calls cover weakened binding; strength is not graded here. Each block holds one substance with its values, some of them ahead of it.

Sequences of proteins named here, by UniProt entry; tags and fusion partners are left off.
UniProt P17096: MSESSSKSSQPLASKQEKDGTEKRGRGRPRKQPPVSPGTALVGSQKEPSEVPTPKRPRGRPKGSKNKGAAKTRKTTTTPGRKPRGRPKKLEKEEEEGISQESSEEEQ
UniProt Q12778: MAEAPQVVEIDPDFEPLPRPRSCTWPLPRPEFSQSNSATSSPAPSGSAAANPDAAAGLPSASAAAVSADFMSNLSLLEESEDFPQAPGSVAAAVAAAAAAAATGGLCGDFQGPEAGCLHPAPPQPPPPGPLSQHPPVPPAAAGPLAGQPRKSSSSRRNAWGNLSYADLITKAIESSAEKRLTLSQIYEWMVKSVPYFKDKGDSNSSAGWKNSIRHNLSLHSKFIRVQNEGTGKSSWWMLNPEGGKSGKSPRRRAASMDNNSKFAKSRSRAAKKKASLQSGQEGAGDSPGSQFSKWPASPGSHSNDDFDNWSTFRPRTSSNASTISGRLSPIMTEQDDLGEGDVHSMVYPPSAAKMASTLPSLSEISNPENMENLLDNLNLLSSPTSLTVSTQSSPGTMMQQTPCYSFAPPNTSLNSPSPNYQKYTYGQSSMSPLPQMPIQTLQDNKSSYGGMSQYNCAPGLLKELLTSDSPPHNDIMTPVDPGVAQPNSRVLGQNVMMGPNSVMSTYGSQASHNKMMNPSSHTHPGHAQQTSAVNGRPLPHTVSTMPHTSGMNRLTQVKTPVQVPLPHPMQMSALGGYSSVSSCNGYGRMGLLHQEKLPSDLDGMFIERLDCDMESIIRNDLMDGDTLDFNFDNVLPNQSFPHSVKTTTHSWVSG
UniProt Q9R1E0: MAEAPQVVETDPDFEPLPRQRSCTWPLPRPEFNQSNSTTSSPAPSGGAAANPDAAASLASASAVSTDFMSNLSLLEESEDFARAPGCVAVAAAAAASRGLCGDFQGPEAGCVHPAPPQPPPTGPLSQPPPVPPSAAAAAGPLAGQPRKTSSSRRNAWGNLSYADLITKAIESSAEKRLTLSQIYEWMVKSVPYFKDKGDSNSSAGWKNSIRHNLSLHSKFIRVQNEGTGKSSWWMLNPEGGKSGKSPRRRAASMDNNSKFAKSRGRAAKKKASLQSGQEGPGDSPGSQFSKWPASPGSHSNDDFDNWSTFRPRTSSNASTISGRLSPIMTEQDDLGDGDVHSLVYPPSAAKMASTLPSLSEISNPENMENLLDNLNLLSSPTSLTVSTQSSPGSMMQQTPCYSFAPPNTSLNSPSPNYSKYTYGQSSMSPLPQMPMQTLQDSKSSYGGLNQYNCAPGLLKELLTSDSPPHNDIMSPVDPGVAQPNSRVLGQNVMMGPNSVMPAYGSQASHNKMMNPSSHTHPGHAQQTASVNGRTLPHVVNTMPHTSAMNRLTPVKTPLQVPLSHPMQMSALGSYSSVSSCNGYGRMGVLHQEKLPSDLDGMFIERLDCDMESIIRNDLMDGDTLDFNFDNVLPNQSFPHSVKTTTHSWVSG

How the values were obtained:
YFP-HMGA1a (human) = YFP-HMGA1a (human) (UniProt P17096); test: FRET or BRET; FRET between YFP-HMGA1 and CFP-FoxO1 in living serum-starved HEK-293 cells, confocal microscopy
[1] = molecular target: T1, HMGA1 (endogenous, mouse liver extract) (mouse (endogenous in liver)) (UniProt P17095); test: co-IP; liver extracts from wild-type mice; data not shown
T1 sequence: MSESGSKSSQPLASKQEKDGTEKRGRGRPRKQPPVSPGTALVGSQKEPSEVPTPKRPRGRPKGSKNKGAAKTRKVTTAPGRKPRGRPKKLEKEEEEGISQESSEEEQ

[2] = molecular target: HMGA1 (endogenous, HepG2 nuclear extract) (human (endogenous in HepG2)) (UniProt P17096); test: co-IP; HepG2 nuclear extract (500 µg); anti-HMGA1 antibody covalently coupled to protein A beads, 3 h at 4 °C, NETN wash buffer (150 mM NaCl, 0.1% NP-40); immunoblot for FoxO1
[3] = molecular target: GST tagged human HMGA1 (human) (UniProt P17096); test: pull-down; GST-HMGA1 affinity resin or GST alone; in vitro-translated 35S-labeled FoxO1 retained, SDS-PAGE; in the absence of chromatin/DNA; only the target purified

binding (YFP-HMGA1a (human)): binds
Substance: CFP-FoxO1 (from UniProt Q12778 1-655)

binding [1]: binds
Substance: FoxO1 (endogenous, mouse liver extract) (from UniProt Q9R1E0 1-652)

binding [2]: binds
Substance: FoxO1 (endogenous, HepG2 nuclear extract) (from UniProt Q12778 1-655)

binding [3]: binds
Substance: in vitro-translated 35S-labeled FoxO1 (from UniProt Q12778 1-655)
